Literature values in patent US20160312309A1 (Millennium Pharmaceuticals, Inc., priority 2008, published 2016).
For at least one compound, name, drawing or mass did not settle the structure.

Test system: relapsed myeloma
Settings: estimated, vincristine, doxorubicin; cited from earlier work

C[C@@H]1C[C@H]2[C@@H]3CCC4=CC(=O)C=C[C@]4(C)[C@@]3(F)[C@@H](O)C[C@]2(C)[C@@]1(O)C(=O)CO [dexamethasone, Dexamethasone]
share of the effect of VAD accounted for by the dexamethasone component: 85%
